# Measurements reported in the supplement of paper PMC9015667.
# Counter-ions that a name gives are not always drawn. Some of the results follow. Single values are uncertain, as repeats are few or missing.
# Tests used:
# Assay in all cases: reduction in cell viability relative to untreated/vehicle; higher = more growth inhibition
# Conditions in all cases: 200 nM; 72 h
# M229P = tested on: M229P (parental melanoma line)
# M229R = tested on: M229R (matched melanoma line resistant to BRAF inhibitors)
# M238P = tested on: M238P (parental melanoma line)
# M238R = tested on: M238R (matched melanoma line resistant to BRAF inhibitors)
# M249P = tested on: M249P (parental melanoma line)
# M249R = tested on: M249R (matched melanoma line resistant to BRAF inhibitors)
# UACC62P = tested on: UACC62P (parental melanoma line)
# UACC62R = tested on: UACC62R (matched melanoma line resistant to BRAF inhibitors)
Structure (SMILES),reduction in cell viability (M229P),reduction in cell viability (M229R),reduction in cell viability (M238P),reduction in cell viability (M238R),reduction in cell viability (M249P),reduction in cell viability (M249R),reduction in cell viability (UACC62P),reduction in cell viability (UACC62R)
CCOC(=O)/C=C/[C@H](C[C@@H]1CCNC1=O)NC(=O)[C@@H](CC(=O)[C@@H](NC(=O)c1cc(C)on1)C(C)C)Cc1ccc(F)cc1 [Rupintrivir],< 0%,< 0%,< 0%,< 0%,< 0%,< 0%,< 0%,< 0%
CC(C)(C)NC(=O)[C@H]1CC[C@H]2[C@@H]3CC[C@H]4NC(=O)C=C[C@]4(C)[C@H]3CC[C@]12C [Finasteride],< 0%,< 0%,< 0%,< 0%,< 0%,< 0%,< 0%,< 0%
COc1ccc2c(c1OC)C(=O)O[C@@H]2[C@H]1c2c(cc3c(c2OC)OCO3)CCN1C [Noscapine],< 0%,< 0%,< 0%,< 0%,< 0%,< 0%,20.6%,< 0%
CO[C@H]1/C=C/O[C@@]2(C)Oc3c(C)c(O)c4c(O)c(c(/C=N/N5CCN(C)CC5)c(O)c4c3C2=O)NC(=O)/C(C)=C\C=C\[C@H](C)[C@H](O)[C@@H](C)[C@@H](O)[C@@H](C)[C@H](OC(C)=O)[C@@H]1C [Rifampicin],< 0%,0.81%,16.2%,10.8%,13.9%,< 0%,7.85%,22.4%
NC1(c2ccc(-c3nc4ccn5c(=O)[nH]nc5c4cc3-c3ccccc3)cc2)CCC1,< 0%,< 0%,0.63%,< 0%,19.6%,1.78%,17.7%,< 0%
CC1(C)CCC(C)(C)c2cc(NC(=O)c3ccc(C(=O)O)cc3)ccc21 [Tamibarotene],< 0%,< 0%,< 0%,< 0%,< 0%,< 0%,< 0%,< 0%
C=C1c2cccc(O)c2C(=O)C2=C(O)[C@]3(O)C(=O)C(C(N)=O)=C(O)[C@@H](N(C)C)[C@@H]3[C@@H](O)[C@H]12 [Methacycline hydrochloride],< 0%,< 0%,< 0%,< 0%,< 0%,< 0%,< 0%,< 0%
COc1cccc2nc(-c3cccs3)nc(NN3C(=O)C=C(C)C3=O)c12,23.3%,24.8%,30.1%,< 0%,4.44%,10.1%,11.7%,< 0%
NC(=O)c1ccc(N(C(N)=O)c2c(F)cccc2F)nc1-c1ccc(F)cc1F,< 0%,< 0%,< 0%,< 0%,< 0%,< 0%,< 0%,< 0%
COc1cc2c(N3CCN(C(=O)Nc4ccc(OC(C)C)cc4)CC3)ncnc2cc1OCCCN1CCCCC1 [Tandutinib],< 0%,< 0%,< 0%,< 0%,< 0%,< 0%,< 0%,< 0%
CC(C)(C)Cn1c(N)nc2ccc(-c3[nH]c(C(C)(C)C)nc3-c3ccc(F)cc3)nc21,< 0%,< 0%,< 0%,< 0%,< 0%,< 0%,< 0%,9.05%
Cc1[nH]nc2ccc(-c3cncc(OC[C@@H](N)Cc4ccccc4)c3)cc12,< 0%,27.5%,14.2%,< 0%,0.97%,26.9%,29.9%,7.86%
Cc1ccc(Nc2nccc(N(C)c3ccc4c(C)n(C)nc4c3)n2)cc1S(N)(=O)=O [Pazopanib],< 0%,< 0%,< 0%,< 0%,< 0%,6.01%,< 0%,< 0%
CCOC(=O)N1c2ccc(C(F)(F)F)cc2[C@@H](N(Cc2cc(C(F)(F)F)cc(C(F)(F)F)c2)C(=O)OC)C[C@H]1CC [Torcetrapib],< 0%,< 0%,< 0%,< 0%,< 0%,< 0%,< 0%,< 0%
O=C(c1cncc(Br)c1)N1CCC(N2CCCC2)CC1,< 0%,< 0%,< 0%,< 0%,< 0%,< 0%,< 0%,< 0%
O=C1Nc2ccccc2/C1=C1/Nc2ccccc2C1=O [Indirubin],< 0%,< 0%,< 0%,< 0%,< 0%,< 0%,< 0%,< 0%
Nc1c2c(nc3ccccc13)CCCC2 [Tacrine],< 0%,< 0%,< 0%,< 0%,< 0%,< 0%,< 0%,< 0%
COc1ccc(CCN2CCN(CCCc3ccccc3)CC2)cc1OC [Cutamesine hydrochloride],3.19%,18.3%,< 0%,< 0%,< 0%,< 0%,2.69%,< 0%
CC(C)C[C@H](NC(=O)c1cc2ccccc2s1)C(=O)N1CCN(C(=O)[C@H](CO)NS(=O)(=O)c2ccc(Cl)cc2Cl)CC1,< 0%,< 0%,87.4%,< 0%,< 0%,< 0%,< 0%,< 0%
CO[C@H]1/C=C/O[C@@]2(C)Oc3c(C)c(O)c4c(O)c(c(/C=N/N5CCN(C6CCCC6)CC5)c(O)c4c3C2=O)NC(=O)/C(C)=C\C=C\[C@H](C)[C@H](O)[C@@H](C)[C@@H](O)[C@@H](C)[C@H](OC(C)=O)[C@@H]1C [Rifapentine],< 0%,< 0%,< 0%,< 0%,< 0%,5.09%,8.24%,< 0%
CCCOc1ccc(C(=O)OCCN(CC)CC)cc1N [Proparacaine],< 0%,< 0%,< 0%,< 0%,< 0%,< 0%,3.07%,< 0%

Structure (SMILES),reduction in cell viability (M229P),reduction in cell viability (M229R),reduction in cell viability (M238P),reduction in cell viability (M238R),reduction in cell viability (M249P),reduction in cell viability (M249R),reduction in cell viability (UACC62P),reduction in cell viability (UACC62R)
COc1ccc(CCN(C)CCCOc2ccc(S(=O)(=O)c3c(C(C)C)n(C)c4ccccc34)cc2)cc1OC,< 0%,< 0%,< 0%,< 0%,< 0%,< 0%,< 0%,< 0%
COC[C@@H](c1ccc(C(F)(F)F)cc1)N1CCN(C2(C)CCN(C(=O)c3c(C)ncnc3C)CC2)C[C@@H]1C [Vicriviroc maleate],< 0%,< 0%,< 0%,< 0%,< 0%,< 0%,< 0%,< 0%
N[C@@H]1CONC1=O [D-Cycloserine],< 0%,0.01%,< 0%,< 0%,< 0%,1.19%,< 0%,< 0%
CC(C)NCC(O)c1ccc(NS(C)(=O)=O)cc1 (stereo unspecified) [Sotalol],< 0%,< 0%,< 0%,< 0%,< 0%,< 0%,< 0%,< 0%
CC(=O)[C@H]1CC[C@H]2[C@@H]3CC=C4C[C@@H](O)CC[C@]4(C)[C@H]3CC[C@]12C [Pregnenolone],< 0%,< 0%,< 0%,< 0%,< 0%,< 0%,< 0%,< 0%
NC(=O)c1cccc2[nH]c(-c3ccc(C4CCCN4)cc3F)nc12 (stereo unspecified),< 0%,< 0%,< 0%,< 0%,< 0%,< 0%,< 0%,< 0%
CC(C)CN(C[C@@H](O)[C@H](Cc1ccccc1)NC(=O)O[C@H]1CCOC1)S(=O)(=O)c1ccc(N)cc1 [Amprenavir],< 0%,< 0%,< 0%,< 0%,< 0%,< 0%,< 0%,< 0%
Cc1cnc(NC(=O)Nc2cc(Br)c(C)cc2OC[C@@H]2CNCCO2)cn1 [Rabusertib],< 0%,46.3%,9.9%,< 0%,< 0%,40%,< 0%,27%
CCCCCN(C)CCC(O)(P(=O)(O)O)P(=O)(O)O [Ibandronate sodium hydrate],< 0%,< 0%,< 0%,< 0%,< 0%,< 0%,< 0%,< 0%
CC(C(=O)O)c1cccc(C(=O)c2ccccc2)c1 (stereo unspecified) [Ketoprofen],< 0%,< 0%,< 0%,< 0%,< 0%,< 0%,< 0%,< 0%
C/C(=N\NC(=S)N1CCC1)c1ccccn1,50.6%,42%,48.1%,61.2%,32.8%,32.4%,39.7%,66.1%
O=C(CCN1CCN(C(=O)OCc2cc(Cl)cc(Cl)c2)CC1)c1ccc2[nH]c(=O)oc2c1,< 0%,< 0%,< 0%,< 0%,< 0%,< 0%,< 0%,< 0%
C[C@]1(c2nc3c(C(N)=O)cccc3[nH]2)CCCN1 [Veliparib],< 0%,< 0%,< 0%,< 0%,< 0%,< 0%,< 0%,< 0%
C#Cc1cccc(Nc2ncnc3cc(OC)c(OCCCCCCC(=O)NO)cc23)c1,8.61%,11.5%,12.4%,< 0%,26.1%,21.7%,3.86%,30.6%
CCS(=O)(=O)Nc1ccc2c(c1)/C(=C(/Nc1ccc(CN3CCCCC3)cc1)c1ccccc1)C(=O)N2 [Hesperadin],41.2%,91.4%,68.9%,89.6%,19.9%,< 0%,54.4%,63%
O=C(Nc1nc2ccccc2n1CCN1CCOCC1)c1cccc([N+](=O)[O-])c1 [IRAK-1-4 Inhibitor I],< 0%,< 0%,< 0%,< 0%,< 0%,< 0%,< 0%,< 0%
Fc1ccc(CNc2ncnc3ccc(F)cc23)cc1 [Spautin-1],< 0%,< 0%,< 0%,< 0%,< 0%,< 0%,< 0%,< 0%
O=C(O)c1c(Cl)c(Cl)c(Cl)c(Cl)c1-c1c2cc(I)c(=O)c(I)c-2oc2c(I)c(O)c(I)cc12 [Rose Bengal disodium],< 0%,< 0%,< 0%,< 0%,< 0%,< 0%,27.8%,< 0%
CSCC[C@H](N)C(=O)N[C@@]1(C(=O)O)CS(=O)(=O)[C@H]2[C@H](C(=O)O)[C@H]21,< 0%,< 0%,< 0%,< 0%,< 0%,< 0%,< 0%,< 0%
NC(=O)c1ncn([C@@H]2O[C@H](CO)[C@@H](O)[C@H]2O)n1 [Ribavirin],< 0%,< 0%,< 0%,< 0%,< 0%,6.16%,< 0%,< 0%
COc1cc([C@@H]2c3cc4c(cc3[C@@H](O[C@@H]3O[C@@H]5CO[C@@H](C)O[C@H]5[C@H](O)[C@H]3O)[C@H]3COC(=O)[C@H]23)OCO4)cc(OC)c1O [Etoposide],< 0%,11.3%,19.8%,0.54%,15.2%,22.6%,19.4%,43.1%

# In the list so far, 2 contain a thiophene ring, fused or not.
Structure (SMILES),reduction in cell viability (M229P),reduction in cell viability (M229R),reduction in cell viability (M238P),reduction in cell viability (M238R),reduction in cell viability (M249P),reduction in cell viability (M249R),reduction in cell viability (UACC62P),reduction in cell viability (UACC62R)
COc1cccc2nc(-c3cccs3)nc(NN3C(=O)C=C(C)C3=O)c12,23.3%,24.8%,30.1%,< 0%,4.44%,10.1%,11.7%,< 0%
CC(C)C[C@H](NC(=O)c1cc2ccccc2s1)C(=O)N1CCN(C(=O)[C@H](CO)NS(=O)(=O)c2ccc(Cl)cc2Cl)CC1,< 0%,< 0%,87.4%,< 0%,< 0%,< 0%,< 0%,< 0%
